The values are deposited in ChEMBL (CHEMBL3988442, “University of Dundee, Small-Polar-MMV Screening Library” (2021)).

By UniProt entry, the sequences of proteins in these tests, tags left out. Residues count along the entry.
UniProt I6X8D2, whole entry: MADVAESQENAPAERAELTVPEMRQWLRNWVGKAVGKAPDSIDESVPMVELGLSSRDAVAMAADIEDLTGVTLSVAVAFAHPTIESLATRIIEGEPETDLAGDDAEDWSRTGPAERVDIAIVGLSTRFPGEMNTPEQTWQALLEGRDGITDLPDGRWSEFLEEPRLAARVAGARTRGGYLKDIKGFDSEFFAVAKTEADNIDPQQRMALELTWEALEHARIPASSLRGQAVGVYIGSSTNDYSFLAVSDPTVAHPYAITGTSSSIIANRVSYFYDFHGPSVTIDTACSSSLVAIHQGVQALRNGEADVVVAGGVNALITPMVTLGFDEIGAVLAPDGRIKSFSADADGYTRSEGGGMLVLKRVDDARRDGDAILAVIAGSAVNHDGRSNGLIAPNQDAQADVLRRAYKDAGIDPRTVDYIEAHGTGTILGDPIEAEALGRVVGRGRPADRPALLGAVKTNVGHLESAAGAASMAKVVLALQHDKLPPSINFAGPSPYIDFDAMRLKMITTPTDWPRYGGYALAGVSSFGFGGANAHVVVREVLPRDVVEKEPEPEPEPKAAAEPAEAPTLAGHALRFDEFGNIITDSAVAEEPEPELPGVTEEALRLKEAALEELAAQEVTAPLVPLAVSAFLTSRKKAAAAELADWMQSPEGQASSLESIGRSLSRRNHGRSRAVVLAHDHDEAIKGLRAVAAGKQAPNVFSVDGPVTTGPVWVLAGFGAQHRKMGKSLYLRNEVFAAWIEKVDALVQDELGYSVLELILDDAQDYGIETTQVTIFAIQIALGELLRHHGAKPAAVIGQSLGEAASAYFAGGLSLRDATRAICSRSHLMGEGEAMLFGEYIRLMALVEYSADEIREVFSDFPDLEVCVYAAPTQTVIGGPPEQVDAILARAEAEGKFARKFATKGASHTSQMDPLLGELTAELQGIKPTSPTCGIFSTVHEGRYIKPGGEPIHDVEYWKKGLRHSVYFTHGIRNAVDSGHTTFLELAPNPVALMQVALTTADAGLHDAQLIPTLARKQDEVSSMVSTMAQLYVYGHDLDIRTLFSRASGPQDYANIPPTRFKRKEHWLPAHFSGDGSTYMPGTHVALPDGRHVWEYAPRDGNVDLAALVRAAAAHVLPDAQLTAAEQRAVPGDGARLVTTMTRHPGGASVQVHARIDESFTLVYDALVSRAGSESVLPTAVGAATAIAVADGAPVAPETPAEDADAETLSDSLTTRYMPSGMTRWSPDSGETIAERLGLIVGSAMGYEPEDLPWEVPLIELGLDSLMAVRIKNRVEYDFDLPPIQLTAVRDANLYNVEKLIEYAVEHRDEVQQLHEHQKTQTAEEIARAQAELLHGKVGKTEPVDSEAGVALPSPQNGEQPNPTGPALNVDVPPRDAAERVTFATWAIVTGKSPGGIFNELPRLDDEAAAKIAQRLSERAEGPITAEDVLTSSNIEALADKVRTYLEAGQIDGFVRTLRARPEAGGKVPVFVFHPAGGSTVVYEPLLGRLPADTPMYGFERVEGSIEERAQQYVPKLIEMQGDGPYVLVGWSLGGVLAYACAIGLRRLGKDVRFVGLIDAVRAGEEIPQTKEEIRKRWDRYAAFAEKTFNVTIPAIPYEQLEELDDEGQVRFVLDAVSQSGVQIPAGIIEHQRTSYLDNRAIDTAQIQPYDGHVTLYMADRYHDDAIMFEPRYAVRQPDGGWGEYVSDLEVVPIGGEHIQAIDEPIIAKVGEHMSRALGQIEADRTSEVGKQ
UniProt P9WNZ1, whole entry: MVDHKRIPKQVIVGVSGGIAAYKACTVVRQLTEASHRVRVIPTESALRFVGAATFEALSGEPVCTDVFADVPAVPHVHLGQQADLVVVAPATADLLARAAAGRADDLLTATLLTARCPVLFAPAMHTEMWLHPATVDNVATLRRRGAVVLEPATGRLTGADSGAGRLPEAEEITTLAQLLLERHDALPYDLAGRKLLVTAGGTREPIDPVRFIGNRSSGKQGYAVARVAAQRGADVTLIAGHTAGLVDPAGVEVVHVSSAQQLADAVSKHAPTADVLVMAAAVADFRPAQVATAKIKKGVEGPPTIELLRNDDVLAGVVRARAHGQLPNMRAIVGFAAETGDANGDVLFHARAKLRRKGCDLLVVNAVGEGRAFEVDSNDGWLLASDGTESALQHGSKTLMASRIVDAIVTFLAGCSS
UniProt Q8IDJ8, 1-583: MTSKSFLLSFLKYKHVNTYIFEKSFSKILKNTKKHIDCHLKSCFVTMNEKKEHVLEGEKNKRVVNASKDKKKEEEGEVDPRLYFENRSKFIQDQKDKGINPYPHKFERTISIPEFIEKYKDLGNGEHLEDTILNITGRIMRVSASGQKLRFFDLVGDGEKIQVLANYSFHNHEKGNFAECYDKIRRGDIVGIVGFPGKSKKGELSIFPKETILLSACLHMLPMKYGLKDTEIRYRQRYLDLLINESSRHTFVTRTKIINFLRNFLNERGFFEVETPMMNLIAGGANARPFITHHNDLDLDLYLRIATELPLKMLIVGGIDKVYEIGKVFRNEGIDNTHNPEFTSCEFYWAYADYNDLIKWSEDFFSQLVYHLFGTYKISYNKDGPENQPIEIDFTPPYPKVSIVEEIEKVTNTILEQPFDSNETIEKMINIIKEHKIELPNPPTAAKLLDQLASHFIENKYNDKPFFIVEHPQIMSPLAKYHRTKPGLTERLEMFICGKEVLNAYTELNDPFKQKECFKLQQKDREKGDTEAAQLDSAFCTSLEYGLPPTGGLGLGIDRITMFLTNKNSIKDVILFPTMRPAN
UniProt Q4DA54, 1-478: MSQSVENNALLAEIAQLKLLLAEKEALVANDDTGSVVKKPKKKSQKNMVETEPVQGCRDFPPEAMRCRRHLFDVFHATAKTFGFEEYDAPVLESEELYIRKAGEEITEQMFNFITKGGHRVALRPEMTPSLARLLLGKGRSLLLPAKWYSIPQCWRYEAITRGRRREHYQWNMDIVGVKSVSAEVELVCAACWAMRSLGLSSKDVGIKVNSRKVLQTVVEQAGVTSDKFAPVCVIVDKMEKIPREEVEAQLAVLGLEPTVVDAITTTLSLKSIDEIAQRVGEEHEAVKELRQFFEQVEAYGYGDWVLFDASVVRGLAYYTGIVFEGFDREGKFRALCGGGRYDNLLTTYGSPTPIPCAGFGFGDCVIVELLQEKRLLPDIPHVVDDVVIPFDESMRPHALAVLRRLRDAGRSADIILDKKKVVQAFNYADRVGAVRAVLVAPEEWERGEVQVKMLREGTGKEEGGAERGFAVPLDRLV

A: 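Polyketide synthase Pks13, Mycobacterium tuberculosis (UniProt I6X8D2). Enzyme assay of the thioesterase domain of polyketide synthase 13; the read-out is not stated. Compounds at 30 µM. The record gives no direction; the compounds picked for IC50 retests had high values, so higher reads as stronger inhibition. About 67,000 compounds were tested under these conditions; 0.46% (about 300) showed 50% or more at least once.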
B: 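Enzyme assay of CoaBC with a phosphate dye (Biomol Green) read at 650 nm. Target: Coenzyme A biosynthesis protein CoaBC, Mycobacterium tuberculosis (UniProt P9WNZ1). Tested at 30 µM. Higher reads as stronger inhibition, judged from the few compounds that gave an IC50. Most strong results did not repeat in a second test. About 67,000 compounds were tested under these conditions; 0.06% (about 40) showed 50% or more at least once.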
C: 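Enzyme assay of the cytosolic lysyl-tRNA synthetase in 384-well plates, read by luminescence. Target: Lysine-tRNA ligase, Plasmodium falciparum 3D7 (UniProt Q8IDJ8). Tested at 30 µM. Higher reads as stronger inhibition, judged from the few compounds that gave an IC50. Size under these conditions: about 69,000 compounds, about 49 of them at 50% or above in at least one test.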
D: 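Enzyme assay of histidyl-tRNA synthetase; the read-out is not stated. Target: Histidine-tRNA ligase, Trypanosoma cruzi CL Brener (UniProt Q4DA54). Compounds at 30 µM. Direction is inferred from retests: higher values go with stronger inhibition. Size under these conditions: about 69,000 compounds, about 31 of them at 50% or above in at least one test.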

Each number is a percent effect as filed.
The record does not define 0% and 100%; most values in the screen are far below 50% and negative numbers occur (in some assays of this library far below -100).
This is an unselected part of the compounds tested.

Result for CCOCc1cncc2c1CCN(S(=O)(=O)c1cccc(C)c1)C2 was A: -32.26%; B: 6.667%; C: -1.93%; D: 3.743%.
Result for CSCc1cc(F)ccc1CNC(=O)N1CCC[C@@H]1CO was A: -20.96%; B: 0.2049%; C: 4.305%; D: 2.128%.
Result for CNC(=O)c1cccc(NCCOc2ccc(CC#N)cc2)c1C was A: -15.22%; B: -0.2016%; C: 0.8708%; D: 5.435%.
Result for COCCN(CCC#N)S(=O)(=O)c1cc(F)cc(F)c1 was A: -4.134%; B: -1.008%; C: -1.994%; D: 4.348%.
Result for CCN(C)S(=O)(=O)N1CCCC1CC(=O)c1cccs1 (centres unmarked) was A: -84.06%; B: -0.489%; C: -1.174%; D: 2.062%.
Result for Cc1nc(C(=O)N2CCN(c3ncccn3)[C@@H]3CS(=O)(=O)C[C@@H]32)cs1 was A: -35.53%; B: -0.4132%; C: 6.256%; D: 1.63%.
Result for CCc1nc(NC(=O)NCCc2cscn2)nn1C was A: -9.11%; B: -4.958%; C: 8.168%; D: 7.143%.
Result for CN(C)CCCNC(=O)c1cnc(Cc2ccc(F)cc2)s1 was A: -11.75%; B: -33.88%; C: 2.79%; D: 13.33%.
Result for CCSCCC(C)N(C)C(=O)c1ccc2nncn2c1 (centres unmarked) was A: -3.112%; B: 2.418%; C: -0.1307%; D: 3.093%.
Result for CCn1c(CNC(=O)c2ccc(N(C)C)nc2)nc2ccccc21 was B: 10.08%; C: 4.542%; D: 7.563%.
Result for CN(C)C1(CNC(=O)C/C=C/c2ccc(F)cc2)CCOCC1 was A: -2.33%; B: 7.662%; C: 3.083%; D: 3.448%.
Result for Cc1ccc(C(C(=O)NCc2cc(C)[nH]n2)N(C)C)cc1 (centres unmarked) was A: 1.62%; B: -2.751%; C: 1.821%; D: 3.863%.
Result for COc1cc(CN2C[C@@H]3CNC(=O)[C@H](C)[C@@H]3C2)cc(OC)c1 was A: -10.07%; B: 3.529%; C: -1.009%; D: 4.327%.
Result for O=C(Cn1cc(NC(=O)c2ccc(F)cc2F)cn1)NC1CCCC1 was A: -18.18%; B: 1.818%; C: 6.669%; D: 1.02%.
Result for Cc1ccc(NC(=O)C2CSCN2C(=O)c2cnccn2)c(C)c1 (centres unmarked) was A: -3.843%; B: -4.145%; C: -1.641%; D: 3.817%.
Result for COCCN1CCC2(CC1)CN(C(C)=O)c1ccc(C)cc12 was A: -10.6%; B: -12.02%; C: -3.263%; D: -1.149%.
Result for O=C1NCCN1C1CCN(CCOc2ccccc2F)CC1 was A: -15.68%; B: 2.366%; C: 0.9221%; D: 3.207%.
Result for O=C(NCc1cccc(F)c1)NCC(O)c1cccc(F)c1 (centres unmarked) was A: -29.78%; B: 10.06%; C: -1.805%; D: 0.8596%.
Result for c1ncn(CC2CCCN(Cc3nnc(C4CC4)o3)C2)n1 (centres unmarked) was A: -18.21%; B: -0.2632%; C: -2.202%; D: 1.466%.
Result for CC1(C)CC(N2Cc3nc(N4CCCC4)ncc3C2=O)CC(C)(C)N1 was A: -10.61%; B: 12.93%; C: 2.413%; D: 0.8696%.
Result for COc1ccc(CN2C[C@H]3CN(c4ccsc4)C(=O)[C@H]3C2)cc1 was A: -20.73%; B: 9.254%; C: 7.067%; D: 3.867%.
Result for CC(Nc1ccc(Br)cc1)c1nc(C2CC2)no1 (centres unmarked) was A: -22.51%; B: -1.786%; C: 2.667%; D: 3.867%.
Result for COC(C)(C)CC(C)NCc1nncn1C1CCCCC1 (centres unmarked) was A: -23.69%; B: 9.27%; C: -4.901%; D: 4.233%.
Result for O=C(CN1CCOc2ccc(Cl)cc21)NCCCn1cccn1 was A: 20.55%; B: -8.147%; C: -0.3062%; D: 4.762%.
Result for CN(CC(C)(C)C)c1ccc(C(=O)NCCCc2ccccn2)cn1 was A: -14.67%; B: 4.628%; C: 4.212%; D: 5.056%.
Result for c1cnc(NC2COC3(CCN(Cc4ccoc4)CC3)C2)nc1 (centres unmarked) was A: -1.37%; B: 4.481%; C: 2.899%; D: 3.067%.
Result for Cc1cc(C(=O)N(CC(F)(F)F)C2CCOCC2)c(C)o1 was A: -9.092%; B: 0.7856%; C: -1.934%; D: 4.663%.
Result for Cc1cccc(N(CCC#N)S(=O)(=O)CC2CCCCO2)c1 (centres unmarked) was A: -5.807%; B: 0.638%; C: -6.862%; D: 3.922%.
Result for CO[C@H]1CN(Cc2c(C)ccc3ncccc23)CC[C@H]1N was A: -8.582%; B: 3.777%; C: 9.137%; D: -0.5291%.
Result for COc1ccc(C(=O)Nc2cccc(SC)c2)c(OC)n1 was A: -19.77%; B: -2.427%; C: 0.8969%; D: -1.136%.

Once more, the final 3:

- Cc1cccc(N(CCC#N)S(=O)(=O)CC2CCCCO2)c1 (centres unmarked) | A: -5.807%; B: 0.638%; C: -6.862%; D: 3.922%
- CO[C@H]1CN(Cc2c(C)ccc3ncccc23)CC[C@H]1N | A: -8.582%; B: 3.777%; C: 9.137%; D: -0.5291%
- COc1ccc(C(=O)Nc2cccc(SC)c2)c(OC)n1 | A: -19.77%; B: -2.427%; C: 0.8969%; D: -1.136%